In publication PMC10721602:
Results are given in words; binding and its absence hold for the method and conditions named. Some entries that bind do so weakly or less than the wild type. Where a sequence is shown, tags or fusion partners need not be part of it.

Biological target: bls-EGFR extracellular domain (human) (UniProt P00533)
Assay: AlphaScreen or HTRF; biotinylated bls-EGFR extracellular domain and FLAG fusion proteins from the wheat cell-free system mixed in 100 mM Tris-HCl pH 8.0, 1 mg/mL BSA, 100 mM NaCl, 0.1% Tween20, 26 °C 1 h; streptavidin donor and protein A acceptor beads

binding: binds
B1: FLAG-PTK7 (protein, UniProt Q13308 1-1070)
chain: MGAARGSPARPRRLPLLSVLLLPLLGGTQTAIVFIKQPSSQDALQGRRALLRCEVEAPGPVHVYWLLDGAPVQDTERRFAQGSSLSFAAVDRLQDSGTFQCVARDDVTGEEARSANASFNIKWIEAGPVVLKHPASEAEIQPQTQVTLRCHIDGHPRPTYQWFRDGTPLSDGQSNHTVSSKERNLTLRPAGPEHSGLYSCCAHSAFGQACSSQNFTLSIADESFARVVLAPQDVVVARYEEAMFHCQFSAQPPPSLQWLFEDETPITNRSRPPHLRRATVFANGSLLLTQVRPRNAGIYRCIGQGQRGPPIILEATLHLAEIEDMPLFEPRVFTAGSEERVTCLPPKGLPEPSVWWEHAGVRLPTHGRVYQKGHELVLANIAESDAGVYTCHAANLAGQRRQDVNITVATVPSWLKKPQDSQLEEGKPGYLDCLTQATPKPTVVWYRNQMLISEDSRFEVFKNGTLRINSVEVYDGTWYRCMSSTPAGSIEAQARVQVLEKLKFTPPPQPQQCMEFDKEATVPCSATGREKPTIKWERADGSSLPEWVTDNAGTLHFARVTRDDAGNYTCIASNGPQGQIRAHVQLTVAVFITFKVEPERTTVYQGHTALLQCEAQGDPKPLIQWKGKDRILDPTKLGPRMHIFQNGSLVIHDVAPEDSGRYTCIAGNSCNIKHTEAPLYVVDKPVPEESEGPGSPPPYKMIQTIGLSVGAAVAYIIAVLGLMFYCKKRCKAKRLQKQPEGEEPEMECLNGGPLQNGQPSAEIQEEVALTSLGSGPAATNKRHSTSDKMHFPRSSLQPITTLGKSEFGEVFLAKAQGLEEGVAETLVLVKSLQSKDEQQQLDFRRELEMFGKLNHANVVRLLGLCREAEPHYMVLEYVDLGDLKQFLRISKSKDEKLKSQPLSTKQKVALCTQVALGMEHLSNNRFVHKDLAARNCLVSAQRQVKVSALGLSKDVYNSEYYHFRQAWVPLRWMSPEAILEGDFSTKSDVWAFGVLMWEVFTHGEMPHGGQADDEVLADLQAGKARLPQPEGCPSKLYRLMQRCWALSPKDRPSFSEIASALGDSTVDSKP
